In this assay the target is σ^A-FLAG, FLAG-tagged at the native locus (strain LK3207) (M. smegmatis) (UniProt A0QW02). Description: affinity purification with mass spectrometry; anti-FLAG M2 agarose IP from M. smegmatis lysates (exponential and stationary phase cells), elution with 3×FLAG peptide, in-solution trypsin digest, label-free LC-MS against the no FLAG strain.

By UniProt entry, the sequences of proteins in these tests, tags left out.
UniProt A0QW02: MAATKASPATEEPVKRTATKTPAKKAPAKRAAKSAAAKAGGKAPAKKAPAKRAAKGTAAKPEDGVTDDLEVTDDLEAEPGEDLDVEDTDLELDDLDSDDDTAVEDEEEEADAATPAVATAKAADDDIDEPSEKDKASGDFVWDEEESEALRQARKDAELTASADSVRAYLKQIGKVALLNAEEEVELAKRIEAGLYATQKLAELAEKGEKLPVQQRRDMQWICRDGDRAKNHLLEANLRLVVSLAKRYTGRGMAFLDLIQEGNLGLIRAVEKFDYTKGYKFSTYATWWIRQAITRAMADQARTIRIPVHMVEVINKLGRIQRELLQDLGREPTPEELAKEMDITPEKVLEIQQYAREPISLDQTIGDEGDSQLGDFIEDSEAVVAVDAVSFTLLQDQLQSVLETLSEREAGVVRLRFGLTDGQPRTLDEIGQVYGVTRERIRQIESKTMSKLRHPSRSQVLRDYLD
UniProt Q3L885: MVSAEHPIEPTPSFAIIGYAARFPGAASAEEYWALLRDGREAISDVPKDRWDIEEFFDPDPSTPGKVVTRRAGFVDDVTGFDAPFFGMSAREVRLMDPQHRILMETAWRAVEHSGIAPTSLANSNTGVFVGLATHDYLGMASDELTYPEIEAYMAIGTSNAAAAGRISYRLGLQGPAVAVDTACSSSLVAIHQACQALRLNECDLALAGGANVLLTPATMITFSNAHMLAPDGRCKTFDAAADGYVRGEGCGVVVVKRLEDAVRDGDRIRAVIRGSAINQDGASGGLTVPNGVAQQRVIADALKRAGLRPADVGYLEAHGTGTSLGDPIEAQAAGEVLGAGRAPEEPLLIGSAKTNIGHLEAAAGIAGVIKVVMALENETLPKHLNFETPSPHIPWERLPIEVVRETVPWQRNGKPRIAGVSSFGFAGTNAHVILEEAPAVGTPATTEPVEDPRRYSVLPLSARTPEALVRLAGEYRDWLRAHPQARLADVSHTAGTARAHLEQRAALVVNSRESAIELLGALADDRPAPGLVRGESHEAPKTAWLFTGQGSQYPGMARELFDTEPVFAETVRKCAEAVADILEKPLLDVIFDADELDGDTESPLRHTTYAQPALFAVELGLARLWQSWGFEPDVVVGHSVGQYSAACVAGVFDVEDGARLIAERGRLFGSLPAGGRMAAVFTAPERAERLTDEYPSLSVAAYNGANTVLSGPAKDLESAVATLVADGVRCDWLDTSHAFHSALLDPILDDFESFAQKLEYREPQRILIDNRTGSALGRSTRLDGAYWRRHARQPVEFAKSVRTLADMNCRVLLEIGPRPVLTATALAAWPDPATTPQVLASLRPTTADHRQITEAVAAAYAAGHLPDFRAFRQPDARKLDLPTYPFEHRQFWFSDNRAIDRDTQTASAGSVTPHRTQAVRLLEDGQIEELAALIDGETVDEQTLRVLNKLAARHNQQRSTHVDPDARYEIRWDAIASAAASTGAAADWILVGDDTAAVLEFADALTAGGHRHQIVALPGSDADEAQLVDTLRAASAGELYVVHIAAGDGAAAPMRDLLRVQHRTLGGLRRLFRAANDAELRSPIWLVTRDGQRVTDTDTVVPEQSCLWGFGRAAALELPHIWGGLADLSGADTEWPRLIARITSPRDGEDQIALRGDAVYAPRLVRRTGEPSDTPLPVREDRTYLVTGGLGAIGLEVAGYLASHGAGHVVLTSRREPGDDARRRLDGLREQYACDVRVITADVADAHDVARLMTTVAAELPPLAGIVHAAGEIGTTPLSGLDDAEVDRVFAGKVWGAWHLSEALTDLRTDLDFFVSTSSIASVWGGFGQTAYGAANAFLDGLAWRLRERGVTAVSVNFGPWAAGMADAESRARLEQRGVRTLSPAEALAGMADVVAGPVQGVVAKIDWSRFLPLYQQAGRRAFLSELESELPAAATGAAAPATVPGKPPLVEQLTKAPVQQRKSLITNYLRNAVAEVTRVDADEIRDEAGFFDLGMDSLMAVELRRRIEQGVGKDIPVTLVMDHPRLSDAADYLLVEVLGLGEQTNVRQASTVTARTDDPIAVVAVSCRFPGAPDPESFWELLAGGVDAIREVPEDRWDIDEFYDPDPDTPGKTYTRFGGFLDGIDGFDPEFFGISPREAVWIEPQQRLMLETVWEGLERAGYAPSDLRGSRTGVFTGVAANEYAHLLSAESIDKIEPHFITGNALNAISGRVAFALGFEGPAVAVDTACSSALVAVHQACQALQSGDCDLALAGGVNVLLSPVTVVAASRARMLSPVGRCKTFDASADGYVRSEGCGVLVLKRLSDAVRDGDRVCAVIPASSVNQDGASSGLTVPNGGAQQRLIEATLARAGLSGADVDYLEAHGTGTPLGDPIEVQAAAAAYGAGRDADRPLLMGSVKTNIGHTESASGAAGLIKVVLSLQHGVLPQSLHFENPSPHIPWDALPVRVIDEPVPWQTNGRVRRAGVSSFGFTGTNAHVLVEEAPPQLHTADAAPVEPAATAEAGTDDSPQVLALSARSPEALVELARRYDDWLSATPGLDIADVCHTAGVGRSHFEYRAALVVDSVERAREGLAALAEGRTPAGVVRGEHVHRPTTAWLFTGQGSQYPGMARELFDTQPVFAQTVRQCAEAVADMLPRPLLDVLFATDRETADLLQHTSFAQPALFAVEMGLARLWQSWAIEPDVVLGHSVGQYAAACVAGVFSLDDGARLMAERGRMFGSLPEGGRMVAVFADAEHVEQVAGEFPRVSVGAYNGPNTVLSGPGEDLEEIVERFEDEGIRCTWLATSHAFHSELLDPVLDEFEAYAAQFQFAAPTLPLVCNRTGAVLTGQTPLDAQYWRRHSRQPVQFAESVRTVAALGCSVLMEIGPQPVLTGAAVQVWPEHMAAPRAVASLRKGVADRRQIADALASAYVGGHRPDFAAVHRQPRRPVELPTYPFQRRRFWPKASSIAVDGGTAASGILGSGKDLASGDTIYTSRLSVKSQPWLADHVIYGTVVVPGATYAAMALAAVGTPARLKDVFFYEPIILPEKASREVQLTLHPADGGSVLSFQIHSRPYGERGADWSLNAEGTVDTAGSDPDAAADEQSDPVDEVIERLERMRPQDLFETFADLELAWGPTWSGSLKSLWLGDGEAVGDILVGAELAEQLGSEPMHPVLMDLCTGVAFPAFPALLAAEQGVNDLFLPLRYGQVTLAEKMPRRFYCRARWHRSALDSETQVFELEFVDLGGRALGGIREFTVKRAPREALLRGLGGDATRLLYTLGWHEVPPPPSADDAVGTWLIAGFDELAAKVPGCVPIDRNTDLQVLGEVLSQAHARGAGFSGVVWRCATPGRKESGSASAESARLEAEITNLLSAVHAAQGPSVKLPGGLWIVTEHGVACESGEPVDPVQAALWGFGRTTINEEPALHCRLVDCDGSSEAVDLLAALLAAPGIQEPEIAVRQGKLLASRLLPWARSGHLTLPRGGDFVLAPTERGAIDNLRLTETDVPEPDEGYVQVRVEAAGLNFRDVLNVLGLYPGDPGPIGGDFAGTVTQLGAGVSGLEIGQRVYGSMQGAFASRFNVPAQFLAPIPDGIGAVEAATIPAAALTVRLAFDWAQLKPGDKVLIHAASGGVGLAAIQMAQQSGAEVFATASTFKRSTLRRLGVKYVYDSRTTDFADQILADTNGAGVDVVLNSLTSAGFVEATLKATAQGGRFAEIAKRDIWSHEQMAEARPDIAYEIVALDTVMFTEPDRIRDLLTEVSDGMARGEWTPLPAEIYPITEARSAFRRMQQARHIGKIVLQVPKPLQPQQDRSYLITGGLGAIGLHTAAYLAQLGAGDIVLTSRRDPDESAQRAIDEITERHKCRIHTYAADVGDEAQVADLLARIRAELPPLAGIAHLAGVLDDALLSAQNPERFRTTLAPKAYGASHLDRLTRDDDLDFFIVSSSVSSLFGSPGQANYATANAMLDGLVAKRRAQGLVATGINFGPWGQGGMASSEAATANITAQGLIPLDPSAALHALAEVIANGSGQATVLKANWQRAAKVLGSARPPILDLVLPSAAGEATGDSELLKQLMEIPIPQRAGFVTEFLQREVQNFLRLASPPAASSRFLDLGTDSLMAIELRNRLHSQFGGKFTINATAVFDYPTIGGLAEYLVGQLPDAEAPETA

These are yes or no findings as the source states them, for the method shown. In cells and extracts the contact can be indirect. These calls come from enrichment with a bait or labelling near it, and not all partners need be listed.

As to “Pks (MSMEG_0408) (from UniProt Q3L885 1-3652)”, the binding entry is listed as “binds”.

B1: F420 (MSMEG_0777) (protein, UniProt A0QQJ4 1-336)
chain: MAELKLGYKASAEQFAPRELVELAVLAESAGMDSATVSDHFQPWRHEGGHAPFSLAWMTAVGERTKNLVLGTSVLTPTFRYNPAVIAQAFATMGCLYPGRIFLGVGTGEALNEIATGYAGEWPEFKERFARLRESVRLMRELWLGDRVDFDGEYYRTKGASIYDVPEGGIPVYIAAGGPVVAKYAGRAGDGFICTSGKGEELYAEKLIPAVKEGAAAADRDADAIDRMIEIKISYDTDPELALENTRFWAPLSLTAEQKHSIDDPIEMEKAADALPIEQVAKRWIVASDPDEAVEKVGQYVKWGLNHLVFHAPGHDQRRFLELFKRDLEPRLRKLA
Regarding B1, the binding entry is “binds”.

B2: CbiA (MSMEG_0067) (protein, UniProt A0QNJ7 1-474)
chain: MSADYDRLFHSSEPGKPVDDATITVDRDAILKATAATPRVPAGEKPPADAPSGAMPVAPTQTQSAATPSRTAEPQVPPPMPPPPATAPQWPQNSMLRAPQQQQFGPGARHEQPATLPPPAQRLAPGPAPSQLSDIDPEISGAWRAGQAVPAPAQPGPTSAASMGNHRAIDALSHVGVKTNVKMPSQRGWRHWLYVMTRINLGLSPDEIYELDLHNRIRRNARDSYQIGVFGLKGGVGKTAVTVSLGSAMAKIRGDRILAIDADPDGGNLADRAGRQSAATIADLLADQELSRYNDIRAYTSMNSSNLEVLSSEDYSGAQREFNDDDWKGATAVVSRYYNLVLADCGAGLFQKATRGVLSTISGLVIVASASIDGARQAAVTMDWLRQNGYQDLLGRSCVVINHVTPGKPNVDVEDLVQQFERHVPPGRVIVLPYDKHIAAGTEIQLDLLSDTFQRRITELAAALSDDFDRLERR
As for B2, the binding entry was “binds”.

(Values after article PMC11656743.)
